Values quoted from earlier work in patent US12220467B2, “Highly loaded metal oxide materials by self-assembly for extended biologically active molecule release in medical and dental applications” (MESOSIL INC., priority 2016, dated 2025).
For at least one compound, name, drawing or mass did not settle the structure.

Conditions: literature values; cited from earlier work

## CCCCCCCCCCCCCCCC[n+]1ccccc1 [CPC, cetylpyridinium chloride]
  CMC: 0.12 mM
